PubChem BioAssay AID1259308 – NCATS | 2017

Test: 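Genes whose loss raises luciferase production in HEK293 cells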 (primary screen)
Cell system: human HEK293 embryonic kidney cells stably expressing firefly luciferase (HEK-CMV-Luc2-Hygro)
Reagent: single siRNA against human genes, 0.8 pmol siRNA per well
Timing: 72 h
Measured: 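Reporter luminescence and viable-cell signal on separate replicate plates, given as percent of non-targeting control and median/MAD z-scores, plus per-cell luciferase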
Scale: total luciferase, z-score: higher = more reporter protein produced
Active means: 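An siRNA counts as active if its total luciferase robust z-score exceeds 3; genes with two or more such siRNAs out of three were retested with fresh siRNAs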
Calls: active = raised luciferase; inactive = no rise
Here is an unselected part of about 59,000 deposited reagents. In the full data, about 1,510 (2.6%) were called active. 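Calls use total luciferase alone and ignore viability, so some active siRNAs may act by altering cell number.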 The numbers tell different reagents against one gene apart. Further read-outs or replicates are left out here.

RAD51AP1 (RAD51 associated protein 1) #1
- total luciferase, z-score: 1.75
- activity call: inactive

RAD51AP1 (RAD51 associated protein 1) #2
- total luciferase, z-score: -0.0684
- activity call: inactive

RAD51AP1 (RAD51 associated protein 1) #3
- total luciferase, z-score: -0.959
- activity call: inactive

SMARCD1 (SWI/SNF related BAF chromatin remodeling complex subunit D1) #1
- total luciferase, z-score: -0.218
- activity call: inactive

SMARCD1 (SWI/SNF related BAF chromatin remodeling complex subunit D1) #2
- total luciferase, z-score: -0.655
- activity call: inactive

SMARCD1 (SWI/SNF related BAF chromatin remodeling complex subunit D1) #3
- total luciferase, z-score: -0.668
- activity call: inactive

HOXA3 (homeobox A3) #1
- total luciferase, z-score: -0.728
- activity call: inactive

HOXA3 (homeobox A3) #2
- total luciferase, z-score: -0.0983
- activity call: inactive

HOXA3 (homeobox A3) #3
- total luciferase, z-score: 0.474
- activity call: inactive

SLC22A1 #1
- total luciferase, z-score: 0.771
- activity call: inactive

SLC22A1 #2
- total luciferase, z-score: 1.24
- activity call: inactive

SLC22A1 #3
- total luciferase, z-score: 0.784
- activity call: inactive

DDX56 (DEAD-box helicase 56) #1
- total luciferase, z-score: -1.84
- activity call: inactive

DDX56 (DEAD-box helicase 56) #2
- total luciferase, z-score: 0.61
- activity call: inactive

DDX56 (DEAD-box helicase 56) #3
- total luciferase, z-score: -1.9
- activity call: inactive

CEACAM8 (CEA cell adhesion molecule 8) #1
- total luciferase, z-score: -0.00739
- activity call: inactive

CEACAM8 (CEA cell adhesion molecule 8) #2
- total luciferase, z-score: 2.52
- activity call: inactive

CEACAM8 (CEA cell adhesion molecule 8) #3
- total luciferase, z-score: 0.729
- activity call: inactive

SYT14 (synaptotagmin 14) #1
- total luciferase, z-score: 0.556
- activity call: inactive

SYT14 (synaptotagmin 14) #2
- total luciferase, z-score: 0.103
- activity call: inactive

SYT14 (synaptotagmin 14) #3
- total luciferase, z-score: 2.45
- activity call: inactive

TENT5C (terminal nucleotidyltransferase 5C) #1
- total luciferase, z-score: 1.3
- activity call: inactive

TENT5C (terminal nucleotidyltransferase 5C) #2
- total luciferase, z-score: 0.331
- activity call: inactive

TENT5C (terminal nucleotidyltransferase 5C) #3
- total luciferase, z-score: -1.38
- activity call: inactive

The list goes on; the last 6 above are carried over.
SYT14 (synaptotagmin 14) #1
- total luciferase, z-score: 0.556
- activity call: inactive

SYT14 (synaptotagmin 14) #2
- total luciferase, z-score: 0.103
- activity call: inactive

SYT14 (synaptotagmin 14) #3
- total luciferase, z-score: 2.45
- activity call: inactive

TENT5C (terminal nucleotidyltransferase 5C) #1
- total luciferase, z-score: 1.3
- activity call: inactive

TENT5C (terminal nucleotidyltransferase 5C) #2
- total luciferase, z-score: 0.331
- activity call: inactive

TENT5C (terminal nucleotidyltransferase 5C) #3
- total luciferase, z-score: -1.38
- activity call: inactive

TSPAN6 (tetraspanin 6) #1
- total luciferase, z-score: -0.239
- activity call: inactive

TSPAN6 (tetraspanin 6) #2
- total luciferase, z-score: 1.36
- activity call: inactive

TSPAN6 (tetraspanin 6) #3
- total luciferase, z-score: 0.374
- activity call: inactive

ANKRD13B (ankyrin repeat domain 13B) #1
- total luciferase, z-score: -0.364
- activity call: inactive

ANKRD13B (ankyrin repeat domain 13B) #2
- total luciferase, z-score: 0.99
- activity call: inactive

ANKRD13B (ankyrin repeat domain 13B) #3
- total luciferase, z-score: 0.462
- activity call: inactive

TCN1 (transcobalamin 1) #1
- total luciferase, z-score: 0.434
- activity call: inactive

TCN1 (transcobalamin 1) #2
- total luciferase, z-score: 0.0978
- activity call: inactive

TCN1 (transcobalamin 1) #3
- total luciferase, z-score: 0.206
- activity call: inactive

C12orf42 (chromosome 12 open reading frame 42) #1
- total luciferase, z-score: 0.184
- activity call: inactive

C12orf42 (chromosome 12 open reading frame 42) #2
- total luciferase, z-score: -0.205
- activity call: inactive

C12orf42 (chromosome 12 open reading frame 42) #3
- total luciferase, z-score: -0.694
- activity call: inactive

PDHA2 (pyruvate dehydrogenase E1 subunit alpha 2) #1
- total luciferase, z-score: -0.482
- activity call: inactive

PDHA2 (pyruvate dehydrogenase E1 subunit alpha 2) #2
- total luciferase, z-score: -0.499
- activity call: inactive

PDHA2 (pyruvate dehydrogenase E1 subunit alpha 2) #3
- total luciferase, z-score: -1.1
- activity call: inactive

LYPD6B (LY6/PLAUR domain containing 6B) #1
- total luciferase, z-score: 0.305
- activity call: inactive

LYPD6B (LY6/PLAUR domain containing 6B) #2
- total luciferase, z-score: -0.168
- activity call: inactive

LYPD6B (LY6/PLAUR domain containing 6B) #3
- total luciferase, z-score: 0.568
- activity call: inactive
